Assay results published in patent publication US5696089A (Roche Vitamins Inc., priority 1995, dated 1997).

Experiment: general procedure: Boc solid-phase peptide synthesis; Boc-Gly-PAM-resin; DCC; BOP reagent
Details: whole synthesis, scale 0.5 mmol

Substance: PEPTIDE1{H.V.D.A.I.F.T.N.S.Y.R.K.V.L.A.Q.L.S.A.R.K.L.L.Q.D.I.L.S.R.Q.Q.G}$$$$V2.0
- crude mass: 420 mg
- isolated mass: 34 mg

Strings that start with PEPTIDE1 are HELM notation: dots part the residues, brackets hold end groups and non-standard residues.
